# Measured values reported in PubChem BioAssay (NCATS).
# The chains behind the UniProt entries cited, without tags or fusion partners. Where a name states a change or a piece, a line headed by the entry shows the natural chain unless it says otherwise.
# UniProt O15648: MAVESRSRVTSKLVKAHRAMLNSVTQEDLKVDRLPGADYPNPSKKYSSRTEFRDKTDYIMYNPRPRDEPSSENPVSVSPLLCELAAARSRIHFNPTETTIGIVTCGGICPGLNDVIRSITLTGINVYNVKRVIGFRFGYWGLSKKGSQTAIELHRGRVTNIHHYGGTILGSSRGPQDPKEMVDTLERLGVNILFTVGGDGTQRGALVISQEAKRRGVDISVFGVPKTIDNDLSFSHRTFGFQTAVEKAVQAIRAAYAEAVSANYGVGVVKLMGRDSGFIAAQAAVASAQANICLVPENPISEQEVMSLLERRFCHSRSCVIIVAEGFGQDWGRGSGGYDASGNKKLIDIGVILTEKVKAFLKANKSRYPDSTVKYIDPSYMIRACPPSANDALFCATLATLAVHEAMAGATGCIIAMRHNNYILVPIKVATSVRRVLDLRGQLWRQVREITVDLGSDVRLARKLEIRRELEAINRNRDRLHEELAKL
# The inconclusive results got no clear call from the source; some entries with a clear call stand among them for comparison. Potencies of inconclusive entries are doubtful fits and often do not repeat. Activity calls are given as the source filed them. Calls follow the shape of the dose curve; as a rule, active = well fitted inhibition curve with a large enough effect; inconclusive = small, poorly fitted or top-dose-only effect, or effect the other way; inactive = flat fitted curve, though single readings scatter.
# Molecular target: ATP-dependent 6-phosphofructokinase (Trypanosoma brucei brucei) (UniProt O15648)
# Experiment: qHTS Validation Assay to Find Inhibitors of T. brucei phosphofructokinase (AID 485368)
# Details: T. brucei PFK enzyme assay, qHTS 7-point titration; series mostly up to 57.5 µM
# Source text: NIH Molecular Libraries Probe Production Network [MLPCN]
# NIH Chemical Genomics Center [NCGC]
# PI Name: Malcolm Walkinshaw, University of Edinburgh
# Various species of the protozoan family Trypanosomatidae are responsible for a range of serious human diseases in tropical and subtropical areas of the world. […] Many of the disorders caused by trypanosomatids are fatal if left untreated, but most currently used drugs are inefficient and toxic.
# Oxidative metabolism involving the mitochondrial tricarboxylic acid cycle and oxidative phosphorylation are repressed in these parasites, and recent RNA interference (RNAi) experiments have shown that even partial depletion of certain individual glycolytic enzymes can lead to the death of cultured parasites. One such glycolytic enzyme, phosphofructokinase (PFK), catalyzes the formation of fructose-1,6-bisphosphate (F1,6BP) and ADP from fructose-6-phosphate (F6P) and ATP, and in many metabolic circumstances makes an important contribution to the control of flux through the glycolytic pathway. As a specific glycolytic target, PFK is particularly attractive as it catalyzes the first irreversible step in glycolysis, and structural and kinetic studies have shown very substantial and essential differences from corresponding host enzymes, allowing for the discovery of parasite-selective inhibitors.
# The goal of this screen is to find small-molecule inhibitors of T. brucei PFK using a biochemical assay that measures PFK activity as a function of ADP production. A luminescence-based assay for T. brucei PFK activity has been developed which uses luciferase to detect production of ADP. Traditional luciferase-based nucleotide detection reagents rely on ATP production as a direct substrate for the luciferase reaction; however, PFK catalyzes the transfer of a phosphate from ATP to F6P, resulting in the net depletion of ATP. To directly measure the ADP product of the PFK reaction, we used the ADP-Glo detection kit (Promega), which utilizes two separate reactions to 1) deplete all remaining uncatalyzed ATP and 2) convert all remaining ADP to ATP, which is then detected through a traditional luciferase-coupled reaction. Compounds were screened as a concentration-titration series that ranged from 57 uM to 0.7 nM.
# NCGC Assay Protocol Summary:
# Substrate buffer was dispensed into white, solid 1536-well plates at 3uL/well in 0.1M triethanolamine (TEA) buffer, pH 8.0, containing final concentrations of 5 mM MgCl2, 0.01% Tween20, 0.5 mM fructose-6-phosphate (F6P) and 0.1mM ATP. Then, 23 nL of compounds or DMSO were delivered to each well using a pin tool. One uL T. brucei PFK (0.1M TEA, 0.01% Tween20, 0.1% bovine serum albumin (BSA) and 1.25nM PFK, final concentrations) was then dispensed, and plates were incubated at room temperature for 45 min. The luminescent detection reagent, ADP-Glo (Promega), was then added in two steps: the first reagent, ADP-Glo (which converts remaining uncatalyzed ATP), was added at 2.5uL/well and incubated for ten minutes at room temperature, and the second component, Kinase Detection reagent (which converts ADP to ATP as a substrate for luciferase-based luminescence), was added immediately after at 5uL/well, followed by one final ten minute room temperature incubation. The plates were measured on a ViewLux plate reader for luminescent signal using a clear filter with a one second exposure. The %Activity was determined from the corrected luminescence values. As no specific T. brucei PFK inhibitors have been identified in the literature, 1x (1.25nM) and 0x PFK enzyme controls (untreated) were included to normalize %Activity of identified inhibitors; 0x enzyme values corresponded to 100%Activity (full inhibition), while 1x PFK enzyme values were used to normalize 0%Activity (no inhibition).
# Concentration-response curves were fitted to the signals arising from the resulting luminescence. […]
# Potency is read from the fitted curve at half-maximal effect.
row,Structure (SMILES),Potency
1,CN(C)C(=O)/N=N/C(=O)N(C)C,"inconclusive: 12 µM [falling, partial curve, poor fit]"
2,Nc1nc(OCc2ccccc2)c2[nH]cnc2n1,"inconclusive: 33.8 µM [falling, single point]"
3,CC(COc1ccccc1)N(CCCl)Cc1ccccc1 (stereo not given),"inconclusive: 30.1 µM [falling, single point]"
4,C[N+]1(C)C2CC(OC(=O)[C@H](CO)c3ccccc3)CC1C1OC12 (stereo not given in full),"inconclusive: 0.0239 µM [falling, full curve, poor fit]"
5,CC[C@@H](CO)Nc1nc(NCc2ccccc2)c2ncn(C(C)C)c2n1,"inconclusive: 0.757 µM [activator, single point]"
6,Nc1nc(N)c2nc(CNc3ccc(C(=O)NC(CCC(=O)O)C(=O)O)cc3)cnc2n1 (stereo not given),"inconclusive: 37.9 µM [falling, single point]"
7,CCCN(CCC)C1CCc2cccc(O)c2C1 (stereo not given),"inconclusive: 37.9 µM [activator, single point]"
8,C=CCN1CC[C@]23c4c5ccc(O)c4O[C@H]2/C(=N/NC(=O)c2ccccc2)CC[C@@]3(O)[C@H]1C5,"inconclusive: 33.8 µM [falling, single point]"
9,CN1CCC(c2c[nH]c3ccc(O)cc23)CC1,inactive
10,CC(=O)[C@H]1CCC2C3CC[C@H]4C[C@H](O)CC[C@]4(C)C3CC[C@@]21C (stereo not given in full),"inconclusive: 7.57 µM [falling, single point]"
11,CNCCc1ccc(O)c(O)c1,"inconclusive: 60.1 µM [falling, partial curve, poor fit]"
12,O=[N+]([O-])/C=C/c1ccc2c(c1)OCO2,"inconclusive: 19 µM [falling, partial curve]"
13,CCCCCCCCCC[Si](C)(C)CCC(=O)NC(Cc1ccc(C)cc1)c1ccccc1 (stereo not given),"inconclusive: 37.9 µM [falling, single point]"
14,CC(C)NC[C@H](O)COc1cccc2[nH]ccc12,"inconclusive: 42.6 µM [falling, partial curve, poor fit]"
15,COc1ccc(OC)c(C(O)C(C)N)c1 (stereo not given),"inconclusive: 0.757 µM [falling, single point]"
16,CC(C)CC(NP(=O)(O)O[C@@H]1O[C@@H](C)[C@H](O)[C@@H](O)[C@H]1O)C(=O)NC(Cc1c[nH]c2ccccc12)C(=O)O (stereo not given in full),"inconclusive: 0.757 µM [activator, single point]"
17,C[C@]12Cc3cn4c(nc3C=C1CCC1C2CC[C@@]2(C)[C@H]1CC[C@@]2(O)C#N)nc1ccccc14 (stereo not given in full),"inconclusive: 0.757 µM [activator, full curve, poor fit]"
18,CCCn1c(=O)c2[nH]c(C3CCCC3)nc2n(CCCOC(=O)c2ccc(S(=O)(=O)F)cc2)c1=O,"inconclusive: 0.169 µM [falling, full curve, poor fit]"
19,CN1[C@@H](CC(=O)c2ccccc2)CCC[C@H]1C[C@H](O)c1ccccc1,"inconclusive: 8.49 µM [falling, single point]"
20,NC(CP(=O)(O)O)C(=O)O (stereo not given),inactive

row,Structure (SMILES),Potency
1,CCCN1CCO[C@@H]2c3cc(O)ccc3OC[C@H]21,"inconclusive: 8.49 µM [falling, single point]"
2,Cc1cc(O)c2c(c1)C(=O)c1cc(O)cc(O)c1C2=O,"inconclusive: 23.9 µM [falling, partial curve]"
3,C[N+]1(C)CCN(c2ccccc2)CC1,"inconclusive: 60.1 µM [falling, single point]"
4,CCCN(CCC)[C@@H]1CCc2ccc(O)cc2C1,inactive
5,NC(=O)COc1c(F)cc(SCCNS(=O)(=O)c2ccccc2)cc1F,"inconclusive: 13.5 µM [falling, partial curve, poor fit]"
6,CNC(=O)Oc1ccc2c(c1)[C@]1(C)CCN(C)[C@@H]1N2C,inactive
7,C/C(O)=C(\C#N)C(=O)Nc1cc(Br)ccc1Br,"inconclusive: 15.1 µM [falling, single point]"
8,CC(=O)NCCc1c[nH]c2ccccc12,"inconclusive: 33.8 µM [falling, single point]"
9,C=CCN1CCc2cccc3c2[C@H]1Cc1ccc(O)c(O)c1-3,"inconclusive: 4.78 µM [falling, partial curve]"
10,Oc1ccccc1O,"inconclusive: 5.36 µM [falling, partial curve]"
11,NNC(=O)c1ccc(O)cc1,"inconclusive: 47.8 µM [falling, partial curve, poor fit]"
12,CCCN1CCc2cccc3c2[C@H]1Cc1ccc(O)c(O)c1-3,active: 12 µM
13,Cc1sc2ccccc2c1CC1=NCCN1,inactive
14,CCCN(CCC)C1Cc2cc(OC)c(OC)cc2C1,"inconclusive: 0.849 µM [activator, full curve, poor fit]"
15,COc1cc(OC)c(/C=C2/C(=O)Nc3ccccc32)c(OC)c1,"inconclusive: 7.57 µM [falling, single point]"
16,COc1ccc2c(c1)c(CCN1CCOCC1)c(C)n2C(=O)c1cccc(Cl)c1Cl,inactive
17,CC12NC(Cc3ccccc31)c1ccccc12 (stereo not given),"inconclusive: 0.0239 µM [activator, full curve, poor fit]"
18,C#CCOC(=O)C1=CCCN(C)C1,"inconclusive: 0.757 µM [activator, single point]"
19,NC(=O)CI,active: 19 µM
20,COc1ccc2c(c1)CCC1C2CC[C@@]2(C)C1CC[C@@H]2NCCCCCCN1C(=O)C=CC1=O (stereo not given in full),"inconclusive: 1.51 µM [activator, full curve]"

# Sorted by molecular weight (largest number first): some entries from above.
row,Structure (SMILES),Potency
4,CCCN(CCC)[C@@H]1CCc2ccc(O)cc2C1,inactive
17,CC12NC(Cc3ccccc31)c1ccccc12 (stereo not given),"inconclusive: 0.0239 µM [activator, full curve, poor fit]"
20,NC(CP(=O)(O)O)C(=O)O (stereo not given),inactive
